Patent US20230091510A1 (priority 2019, published 2023)

Experiment: general procedure: solution-phase peptide synthesis; HATU/DIPEA
Details: late stage modification step

## (1R,3S,4S)—N—((S)-1-(((3R,4S,5S)-3-methoxy-1-((S)-2-((1R,2R)-1-methoxy-2-methyl-3-oxo-3-(((S)-2-phenyl-1-(thiazol-2-yl)ethyl)amino)propyl)pyrrolidin-1-yl)-5-methyl-1-oxoheptan-4-yl)(methyl)amino)-3-methyl-1-oxobutan-2-yl)-2-azabicyclo
  step yield: 83%
